In publication PMC5653649, “Evolution of AF6-RAS association and its implications in mixed-lineage leukemia” (Nature Communications, 2017) one finds binding data, which are given here for 4 molecules.

Sequences of proteins named here, by UniProt entry; tags and fusion partners are left off. Residues count along the entry.
UniProt Q03164, residues 1-1395: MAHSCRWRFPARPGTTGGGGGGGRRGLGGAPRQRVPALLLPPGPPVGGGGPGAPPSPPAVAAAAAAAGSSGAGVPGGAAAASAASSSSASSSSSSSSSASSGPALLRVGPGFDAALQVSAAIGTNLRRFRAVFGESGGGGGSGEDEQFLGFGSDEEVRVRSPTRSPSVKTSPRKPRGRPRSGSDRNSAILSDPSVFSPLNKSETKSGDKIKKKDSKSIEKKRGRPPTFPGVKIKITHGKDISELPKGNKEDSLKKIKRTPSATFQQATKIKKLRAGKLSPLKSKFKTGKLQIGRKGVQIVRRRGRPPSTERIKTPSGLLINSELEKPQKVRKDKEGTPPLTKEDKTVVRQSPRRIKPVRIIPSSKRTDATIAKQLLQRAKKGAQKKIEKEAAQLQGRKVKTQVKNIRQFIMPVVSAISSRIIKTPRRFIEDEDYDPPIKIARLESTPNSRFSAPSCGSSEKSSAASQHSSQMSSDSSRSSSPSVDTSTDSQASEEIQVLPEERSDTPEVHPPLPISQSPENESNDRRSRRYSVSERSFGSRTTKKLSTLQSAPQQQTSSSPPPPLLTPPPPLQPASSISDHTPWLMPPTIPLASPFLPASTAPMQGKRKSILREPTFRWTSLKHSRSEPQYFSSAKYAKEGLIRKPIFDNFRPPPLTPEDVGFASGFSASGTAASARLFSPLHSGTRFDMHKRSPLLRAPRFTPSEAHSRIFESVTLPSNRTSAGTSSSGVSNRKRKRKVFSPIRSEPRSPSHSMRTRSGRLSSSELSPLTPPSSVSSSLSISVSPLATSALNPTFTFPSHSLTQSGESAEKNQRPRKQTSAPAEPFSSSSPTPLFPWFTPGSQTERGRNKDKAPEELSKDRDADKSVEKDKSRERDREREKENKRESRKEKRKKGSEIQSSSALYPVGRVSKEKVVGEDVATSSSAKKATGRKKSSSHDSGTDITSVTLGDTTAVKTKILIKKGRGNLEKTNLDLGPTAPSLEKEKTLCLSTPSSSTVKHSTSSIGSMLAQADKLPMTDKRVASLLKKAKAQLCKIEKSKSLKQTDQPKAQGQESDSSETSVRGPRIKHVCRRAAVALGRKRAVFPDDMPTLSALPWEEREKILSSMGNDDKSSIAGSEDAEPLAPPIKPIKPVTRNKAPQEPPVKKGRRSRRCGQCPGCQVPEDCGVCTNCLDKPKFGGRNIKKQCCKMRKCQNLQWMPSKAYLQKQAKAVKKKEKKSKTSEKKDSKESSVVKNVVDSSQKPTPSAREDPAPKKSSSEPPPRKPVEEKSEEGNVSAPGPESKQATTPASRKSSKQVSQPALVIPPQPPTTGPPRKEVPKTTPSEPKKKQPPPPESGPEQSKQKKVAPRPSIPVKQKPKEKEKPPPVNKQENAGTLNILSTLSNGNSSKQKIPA
UniProt O00255: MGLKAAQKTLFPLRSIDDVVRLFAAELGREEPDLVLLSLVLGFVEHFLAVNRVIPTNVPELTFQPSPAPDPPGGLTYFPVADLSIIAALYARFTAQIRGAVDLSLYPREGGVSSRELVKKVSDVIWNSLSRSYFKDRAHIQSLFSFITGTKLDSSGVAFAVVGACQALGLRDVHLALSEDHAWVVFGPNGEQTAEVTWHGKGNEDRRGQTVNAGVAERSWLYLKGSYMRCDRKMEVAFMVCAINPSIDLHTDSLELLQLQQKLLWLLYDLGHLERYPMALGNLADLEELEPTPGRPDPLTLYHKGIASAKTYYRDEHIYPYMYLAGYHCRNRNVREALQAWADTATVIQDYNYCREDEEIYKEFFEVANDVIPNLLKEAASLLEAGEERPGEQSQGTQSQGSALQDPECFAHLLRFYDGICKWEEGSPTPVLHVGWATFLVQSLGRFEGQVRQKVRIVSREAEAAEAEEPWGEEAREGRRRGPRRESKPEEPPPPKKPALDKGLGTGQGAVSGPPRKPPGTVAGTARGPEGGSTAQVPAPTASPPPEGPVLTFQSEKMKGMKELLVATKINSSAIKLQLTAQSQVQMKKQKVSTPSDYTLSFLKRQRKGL

These are yes or no findings as the source states them, for the method shown. Binding seen in cells or lysates may run through a third protein. A yes stands for co-enrichment or nearness to the bait. Other partners may have been found. For some assays here: Tags and fused reporters may be left off the sequences shown.

For experiment [1], the target named is BirA*/FLAG-tagged MLLN (MLL residues 1–1395) (UniProt Q03164). The experiment is described as follows: proximity labelling; BioID: BirA*/FLAG-tagged MLL baits in stable HeLa Flp-In T-REx cells, 24 h with tetracycline and 50 µM biotin; streptavidin purification, mass spectrometry, SAINT.
Experiment [2] concerns the target BirA*/FLAG-tagged MLL (1–1395) fused to AF6 RA1 domain (37–136) (UniProt Q03164). The experiment is described as above.
The target of experiment [3] is BirA*/FLAG-tagged MLL (1–1395) fused to AF6 αN-RA1 domain (6–136) (UniProt Q03164). The description is as above.
Experiment [4] deals with BirA*/FLAG-tagged MLL (1–1395) fused to AF6 RA1 domain (37–136) (UniProt Q03164). The experiment is described as follows: proximity labelling; BirA*-tagged MLL fusion co-expressed with GFP-tagged partner; anti-GFP immunoprecipitation (or IP of endogenous MEN1) probed with streptavidin-HRP.
The target of experiment [5] is BirA*/FLAG-tagged MLL (1–1395) fused to AF6 αN-RA1 domain (6–136) (UniProt Q03164). The experiment is described as above.
For experiment [6], the target named is BirA*/FLAG-tagged MLL (1–1395) fused to AF6 RA1 domain (37–136) (UniProt Q03164). The experiment is described as above. The source holds these as a separate data set.

Take “MENIN (endogenous) (from UniProt O00255 1-610)”: the binding result in experiment [1], in experiment [2], in experiment [3], in experiment [4] and in experiment [5] was “binds” each time.

B1: GFP-tagged ELL, full length (protein, UniProt P55199 1-621)
chain: MAALKEDRSYGLSCGRVSDGSKVSVFHVKLTDSALRAFESYRARQDSVSLRPSIRFQGSQGHISIPQPDCPAEARTFSFYLSNIGRDNPQGSFDCIQQYVSSHGEVHLDCLGSIQDKITVCATDDSYQKARQSMAQAEEETRSRSAIVIKAGGRYLGKKVQFRKPAPGATDAVPSRKRATPINLASAIRKSGASAVSGGSGVSQRPFRDRVLHLLALRPYRKAELLLRLQKDGLTQADKDALDGLLQQVANMSAKDGTCTLQDCMYKDVQKDWPGYSEGDQQLLKRVLVRKLCQPQSTGSLLGDPAASSPPGERGRSASPPQKRLQPPDFIDPLANKKPRISHFTQRAQPAVNGKLGVPNGREALLPTPGPPASTDTLSSSTHLPPRLEPPRAHDPLADVSNDLGHSGRDCEHGEAAAPAPTVRLGLPLLTDCAQPSRPHGSPSRSKPKKKSKKHKDKERAAEDKPRAQLPDCAPATHATPGAPADTPGLNGTCSVSSVPTSTSETPDYLLKYAAISSSEQRQSYKNDFNAEYSEYRDLHARIERITRRFTQLDAQLRQLSQGSEEYETTRGQILQEYRKIKKTNTNYSQEKHRCEYLHSKLAHIKRLIAEYDQRQLQAWP
Regarding B1, the binding entry in experiment [6] is on record as “binds”.

B2: GFP-tagged AF10/MLLT10, full length (protein, UniProt P55197 1-1068)
chain: MVSSDRPVSLEDEVSHSMKEMIGGCCVCSDERGWAENPLVYCDGHGCSVAVHQACYGIVQVPTGPWFCRKCESQERAARVRCELCPHKDGALKRTDNGGWAHVVCALYIPEVQFANVSTMEPIVLQSVPHDRYNKTCYICDEQGRESKAATGACMTCNKHGCRQAFHVTCAQFAGLLCEEEGNGADNVQYCGYCKYHFSKLKKSKRGSNRSYDQSLSDSSSHSQDKHHEKEKKKYKEKDKHKQKHKKQPEPSPALVPSLTVTTEKTYTSTSNNSISGSLKRLEDTTARFTNANFQEVSAHTSSGKDVSETRGSEGKGKKSSAHSSGQRGRKPGGGRNPGTTVSAASPFPQGSFSGTPGSVKSSSGSSVQSPQDFLSFTDSDLRNDSYSHSQQSSATKDVHKGESGSQEGGVNSFSTLIGLPSTSAVTSQPKSFENSPGDLGNSSLPTAGYKRAQTSGIEEETVKEKKRKGNKQSKHGPGRPKGNKNQENVSHLSVSSASPTSSVASAAGSITSSSLQKSPTLLRNGSLQSLSVGSSPVGSEISMQYRHDGACPTTTFSELLNAIHNGIYNSNDVAVSFPNVVSGSGSSTPVSSSHLPQQSSGHLQQVGALSPSAVSSAAPAVATTQANTLSGSSLSQAPSHMYGNRSNSSMAALIAQSENNQTDQDLGDNSRNLVGRGSSPRGSLSPRSPVSSLQIRYDQPGNSSLENLPPVAASIEQLLERQWSEGQQFLLEQGTPSDILGMLKSLHQLQVENRRLEEQIKNLTAKKERLQLLNAQLSVPFPTITANPSPSHQIHTFSAQTAPTTDSLNSSKSPHIGNSFLPDNSLPVLNQDLTSSGQSTSSSSALSTPPPAGQSPAQQGSGVSGVQQVNGVTVGALASGMQPVTSTIPAVSAVGGIIGALPGNQLAINGIVGALNGVMQTPVTMSQNPTPLTHTTVPPNATHPMPATLTNSASGLGLLSDQQRQILIHQQQFQQLLNSQQLTPEQHQAFLYQLMQHHHQQHHQPELQQLQIPGPTQIPINNLLAGTQAPPLHTATTNPFLTIHGDNASQKVARLSDKTGPVAQEKS
B2: the binding entry in experiment [6] is reported as “binds”.

B3: GFP-tagged AF17/MLLT6, full length (protein, UniProt P55198 1-1093)
chain: MKEMVGGCCVCSDERGWAENPLVYCDGHACSVAVHQACYGIVQVPTGPWFCRKCESQERAARVRCELCPHKDGALKRTDNGGWAHVVCALYIPEVQFANVLTMEPIVLQYVPHDRFNKTCYICEEQGRESKAASGACMTCNRHGCRQAFHVTCAQMAGLLCEEEVLEVDNVKYCGYCKYHFSKMKTSRHSSGGGGGGAGGGGGSMGGGGSGFISGRRSRSASPSTQQEKHPTHHERGQKKSRKDKERLKQKHKKRPESPPSILTPPVVPTADKVSSSASSSSHHEASTQETSESSRESKGKKSSSHSLSHKGKKLSSGKGVSSFTSASSSSSSSSSSSGGPFQPAVSSLQSSPDFSAFPKLEQPEEDKYSKPTAPAPSAPPSPSAPEPPKADLFEQKVVFSGFGPIMRFSTTTSSSGRARAPSPGDYKSPHVTGSGASAGTHKRMPALSATPVPADETPETGLKEKKHKASKRSRHGPGRPKGSRNKEGTGGPAAPSLPSAQLAGFTATAASPFSGGSLVSSGLGGLSSRTFGPSGSLPSLSLESPLLGAGIYTSNKDPISHSGGMLRAVCSTPLSSSLLGPPGTSALPRLSRSPFTSTLPSSSASISTTQVFSLAGSTFSLPSTHIFGTPMGAVNPLLSQAESSHTEPDLEDCSFRCRGTSPQESLSSMSPISSLPALFDQTASAPCGGGQLDPAAPGTTNMEQLLEKQGDGEAGVNIVEMLKALHALQKENQRLQEQILSLTAKKERLQILNVQLSVPFPALPAALPAANGPVPGPYGLPPQAGSSDSLSTSKSPPGKSSLGLDNSLSTSSEDPHSGCPSRSSSSLSFHSTPPPLPLLQQSPATLPLALPGAPAPLPPQPQNGLGRAPGAAGLGAMPMAEGLLGGLAGSGGLPLNGLLGGLNGAAAPNPASLSQAGGAPTLQLPGCLNSLTEQQRHLLQQQEQQLQQLQQLLASPQLTPEHQTVVYQMIQQIQQKRELQRLQMAGGSQLPMASLLAGSSTPLLSAGTPGLLPTASAPPLLPAGALVAPSLGNNTSLMAAAAAAAAVAAAGGPPVLTAQTNPFLSLSGAEGSGGGPKGGTADKGASANQEKG
On to B3, for which the binding entry in experiment [6] is on record as “binds”.
